104 compounds from the supplement of paper PMC11150407 can be followed below.

Usually cell viability stands for a read-out of living cells in per cent, often relative to untreated cells.

The whole screen tested about 3,000 compounds, of which about 45 (2%) showed an effect of 50% or more. The list shows a part of the results.

The assay relates to MOLM1 and UCSD/AML1 (averaged). The experiment in a line: cell viability relative to DMSO control (POC); higher = less growth inhibition. Conditions: 1 µM; 72 h. Here is the method:
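Primary viability screen in the 3q26 EVI1-high AML cell lines MOLM1 and UCSD/AML1, compounds at 1 uM for 72 h. ATP CellTiter-Glo read-out given as percent viable over DMSO control (POC), averaged over duplicates. This mapping covers the TimTec NDL-3000 natural derivative library, whose compounds are identified by TimTec catalogue codes (ST...).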
In the case of `Cc1cc(=O)[nH]c2ccc(S(=O)(=O)Nc3ccc4c(c3)OCO4)cc12`, the cell viability was 100%.

`O=c1[nH]c(=O)n(C(c2ccccc2)c2ccccc2)cc1Br`: the cell viability came to 117%.

As for `COc1cc(C(=O)OCc2ccccc2Cl)cc(OC)c1OC`, the cell viability came out at 95.9%.

On to `CCn1c(SCc2nc(-c3cccc(C)c3)oc2C)nc2c(=O)[nH]cnc21`, for which the cell viability came to 103%.

For `CCc1ccc2[nH]c(=O)c(C(c3nnnn3CCOC)N(Cc3ccccc3)Cc3ccccc3Cl)cc2c1` (centres undefined), the cell viability stood at 99.4%.

As to `CSc1cccc(NC(=O)CSc2nc3c(=O)[nH]cnc3n2-c2ccc(C)cc2)c1`, the cell viability was 105%.

`N=c1oc2ccc(Br)cc2cc1C(=O)Nc1ccc(F)cc1`: the cell viability was found to be 112%.

For the compound `c1ccc2c(c1)CN1CCCC1=N2`, the cell viability is 97.5%.

`COc1ccc(C(=O)/C=C/c2ccc(OC)c(Cn3nnc4ccccc43)c2)cc1`: the cell viability is 80%.

As to `COC(=O)c1ccc(C2CC(=O)Nc3c2cc(Br)c2ccccc32)cc1` (centres undefined), the cell viability is 96.9%.

Regarding `CC1(C)S[C@@H]2[C@H](NC(=O)Cc3ccccc3)C(=O)N2[C@H]1C(=O)O.CCN(CC)CCOCc1ccc(N)cc1`, the cell viability amounted to 108%.

As to `O=C(OCCNc1nc(-c2ccccc2)nc2ccccc12)c1cccnc1`, the cell viability was 92.7%.

In the case of `O=C(O)c1cccc(C(=O)O)n1`, the cell viability is 106%.

`CC(C)OC(=O)C1=C(N)Oc2c(oc(CO)cc2=O)C1c1ccc(Cl)cc1Cl` (centres undefined): the cell viability amounted to 95.8%.

For `COc1ccc(Br)cc1-c1nc(CSc2nc3c(=O)[nH]c(C)nc3n2C)c(C)o1`, the cell viability amounted to 103%.

Consider `CCCCOc1ccc(/C=C2\Oc3ccc(C(=O)OC)cc3C2=O)cc1OCC`, for which the cell viability was determined as 102%.

Turning to `Cc1ccc(Nc2c([N+](=O)[O-])c(=O)n(C)c3ccccc23)cc1`, the cell viability stood at 103%.

`COc1ccc(/C=C/C(=O)c2ccccc2O)cc1COc1cc(C)c(Cl)cc1C(C)C`: the cell viability turned out to be 102%.

For `COCCOC(=O)c1c(C)n(-c2ccc(Br)cc2)c2ccc(O)cc12`, the cell viability was found to be 93%.

With `Cc1ccc(-n2c(SCC(=O)Nc3cccc(Cl)c3C)nc3c(=O)[nH]cnc32)cc1`, the cell viability was found to be 105%.

As to `COc1ccc(C(=O)NCCOc2cc(C)cc(C)c2)cc1OC`, the cell viability was determined as 93.2%.

Take `O=C(CSc1nc2ccccc2c(=O)[nH]1)N1CCN(c2ccccc2F)CC1`: the cell viability is 103%.

On to `CC(=O)C1CCC2C3CC=C4CC(O[Si](C)(C)C(C)(C)C)CCC4(C)C3CCC12C` (centres undefined), for which the cell viability is 88.3%.

On to `c1ccc2c(CCc3ccncc3)c[nH]c2c1`, for which the cell viability amounted to 98.4%.

Take `Cc1ccc(-n2c(SCc3ccccc3Cl)nc3c(=O)[nH]cnc32)cc1`: the cell viability was 107%.

Regarding `CCCCC(NC(=O)CSc1nnc(-c2ccccc2)n1-c1ccccc1)C(=O)O` (centres undefined), the cell viability was found to be 102%.

Turning to `Cc1ccccc1N/C=C1\C(=O)C(O)=C(C(C)C)c2cc(C)c(-c3c(C)cc4c(c3O)/C(=C/Nc3ccccc3C)C(=O)C(O)=C4C(C)C)c(O)c21`, the cell viability turned out to be 85.8%.

On to `O=C1c2ccccc2C(=O)c2c1ccc([O-])c2[O-].[Ni+2]`, for which the cell viability came out at 98.9%.

For the compound `COc1ccccc1CNC(=O)c1cc(OC)c(OC)c(OC)c1`, the cell viability was 100%.

Turning to `O=c1[nH]c2ccc(OCc3ccccc3)cc2c(O)c1-c1ccccc1`, the cell viability came out at 92.6%.

As to `CCOC(=O)/C(C#N)=C\c1ccc(C)cc1`, the cell viability came to 101%.

For the compound `COC(=O)CNC(=O)c1ccc(Cl)c(Cl)c1`, the cell viability came out at 105%.

As to `CCc1ccc(C(c2c[nH]c3ccccc23)c2c[nH]c3ccccc23)cc1`, the cell viability came to 97.7%.

For the compound `O=C(Nc1ncnc2c1ncn2C1OC(COC(=O)c2ccc(Cl)cc2Cl)C(OC(=O)c2ccc(Cl)cc2Cl)C1OC(=O)c1ccc(Cl)cc1Cl)c1ccccc1` (centres undefined), the cell viability was found to be 74.5%.

Take `CC(C)NCC(O)c1ccc(O)c(O)c1` (centres undefined): the cell viability came to 94.7%.

Turning to `CC1OC(n2cc(F)c(=O)[nH]c2=O)C(O)C1O` (centres undefined), the cell viability came to 95.6%.

With `Cn1c(SCc2ccccc2Cl)nc2c(=O)[nH]cnc21`, the cell viability was 86%.

Regarding `N#CC1=C(N)Oc2cc(O)ccc2C1c1ccccc1F` (centres undefined), the cell viability is 13.8%.

As to `COc1cccc(N2CCN(Cc3cc(=O)oc4cc(C)cc(C)c34)CC2)c1`, the cell viability came out at 91.3%.

Regarding `COc1cc(C2C(C(=O)OC3CCCC3)=C(C)NC3=C2C(=O)CCC3)cc(Cl)c1O` (centres undefined), the cell viability was determined as 106%.

`O=C(O)C(Cc1ccccc1)NC(=O)C1CCCN1C(=O)OCc1ccccc1` (centres undefined): the cell viability stood at 94.6%.

Consider `COc1cc(OC)cc(C(=O)NCc2ccco2)c1`, for which the cell viability was 96.2%.

Regarding `COc1cc(C2NC(=O)NC(C)=C2C(=O)OCCOc2ccccc2)cc(Cl)c1O` (centres undefined), the cell viability is 105%.

`Cc1ccc2c(CN3CCN(Cc4ccccc4C#N)CC3)cc(=O)oc2c1`: the cell viability came out at 91%.

For `Cn1c(=O)c2ccccc2n(CC(=O)c2ccc3c(c2)OCCO3)c1=O`, the cell viability came out at 99.8%.

Turning to `Cc1ccc(C(=O)NCCc2c(C)[nH]c3ccccc23)cc1`, the cell viability turned out to be 94.8%.

For the compound `O=C(C1CC1(c1ccccc1)c1ccccc1)N1CCc2ccccc2C1` (centres undefined), the cell viability came to 95.7%.

`COc1cc(/C=C(/C#N)C(=O)Nc2ccc(O)cc2)ccc1O`: the cell viability came to 76%.

On to `CCC(=O)Oc1ccc(/C=C/c2ccccc2)cc1OC`, for which the cell viability was found to be 91%.

On to `C=C(C)C1CCC2(COC(=O)/C=C/c3ccccc3)CCC3(C)C(CCC4C5(C)CCC(O)C(C)(C)C5CCC43C)C12` (centres undefined), for which the cell viability is 97.4%.

On to `NC(Cc1ccc2nsnc2c1)C(=O)O` (centres undefined), for which the cell viability came out at 100%.

For the compound `O=c1oc2cc(OCc3ccccc3)c(Cl)cc2c2c1CCCC2`, the cell viability stood at 96.4%.

`O=C(Cn1c(=O)cc(C(=O)N2CCCC2)c2ccccc21)Nc1cccc(Cl)c1`: the cell viability was 88%.

Regarding `CCOC(=O)CCc1ccc2c(c1)NC(=O)CC2`, the cell viability was determined as 91.8%.

Consider `C#C[C@]1(O)CC[C@H]2[C@@H]3CCc4cc(O)ccc4[C@H]3CC[C@@]21C`, for which the cell viability was 92.9%.

Turning to `CNC(=O)c1cc(=O)n(CC(=O)Nc2ccc(C)c(F)c2)c2ccccc12`, the cell viability is 104%.

Consider `COc1c2c(c(CSc3nnnn3-c3ccccc3)c(OC)c1OC)C(=O)OC2`, for which the cell viability was 109%.

Turning to `O=C(c1cc(Cl)ccc1Cl)N1CCc2ccccc2C1`, the cell viability turned out to be 93.9%.

Regarding `COc1ccc(/C=C/C(=O)O)cc1S(=O)(=O)NCCCO`, the cell viability stood at 99.9%.

As for `NC1=C(c2c[nH]c3ccccc23)C(=O)NC1=O`, the cell viability stood at 102%.

For the compound `O=C(O)c1[nH]c(=O)[nH]c(=O)c1CN1CCC(Cc2ccccc2)CC1`, the cell viability is 107%.

Regarding `COC(=O)COc1cc(C)c2c(c1)OC1(CC2c2ccccc2)CC(C)(C)NC(=O)N1` (centres undefined), the cell viability amounted to 95.9%.

Consider `COc1ccc(C2CC(=O)C3=C(C2)Nc2ccccc2NC3c2c(F)cccc2Cl)cc1` (centres undefined), for which the cell viability amounted to 99.1%.

For the compound `CCN1Cc2ccccc2CC1C(=O)O` (centres undefined), the cell viability was determined as 107%.

As for `O=C(O)/C=C/c1ccc2c(c1)NC(=O)CO2`, the cell viability amounted to 95.1%.

`COCCOC(=O)c1c(C)n(CCOC23CC4CC(CC(C4)C2)C3)c2c1cc(O)c1ccccc12`: the cell viability came out at 81.2%.

`COC(=O)c1ccc(C(=O)NCCc2c(C)[nH]c3ccc(OC)cc23)cc1`: the cell viability was found to be 111%.

For `O=C(Nc1nc(-c2ccc3c(c2)OCCO3)cs1)c1ccc2c(c1)OCO2`, the cell viability came out at 94.1%.

`CCOC(=O)CCC(=O)Nc1cccc(C(C)=O)c1`: the cell viability amounted to 104%.

Consider `Cc1nn(CC(=O)NCCc2c(C)[nH]c3ccc(OCc4ccccc4)cc23)c(C)c1Cl`, for which the cell viability came out at 95.2%.

As for `COc1ccc(C(=O)N2CCN(c3ccccc3)CC2)cc1OC`, the cell viability came out at 111%.

As for `CC(C)OC(=O)C1=C(N)Oc2c(oc(CO)cc2=O)C1c1c(Cl)cccc1Cl` (centres undefined), the cell viability came out at 104%.

Consider `COc1cc(-c2nnc(CSc3nnc(-c4ccco4)n3-c3ccccc3)o2)cc(OC)c1OC`, for which the cell viability came out at 108%.

`CCC(Sc1nc2c(=O)[nH]cnc2n1C)C(=O)Nc1ccc(C(C)C)cc1` (centres undefined): the cell viability is 100%.

With `CS(=O)(=O)c1ccc2nc(NC(=O)CN3CCc4ccccc4C3)sc2c1`, the cell viability came to 101%.

`CCCC/C(O)=C1\C(=O)CC(c2ccccc2)CC1=NCCc1c(C)[nH]c2ccc(OCc3ccccc3)cc12` (centres undefined): the cell viability was 95.6%.

For `CC(Nc1n[nH]c(=O)[nH]c1=O)C(=O)N/N=C/c1ccccc1` (centres undefined), the cell viability is 98.2%.

Consider `CCCOc1ccc(NCCC(=O)c2cc3ccccc3oc2=O)cc1`, for which the cell viability is 106%.

`O=C(NCCSCc1ccc(Cl)cc1)c1ccc(CN2CCc3ccccc3C2)cc1`: the cell viability amounted to 108%.

On to `Cn1c(=O)cc(/C=N/O)c2ccccc21`, for which the cell viability stood at 90.4%.

As to `Cn1c(=O)c2c(ncn2CC(O)CN=CN2CCOCC2)n(C)c1=O` (centres undefined), the cell viability turned out to be 99.3%.

As for `O=C(/C=C/c1ccc(Cl)cc1)N1CCCCC1`, the cell viability stood at 104%.

Regarding `O=C1ON=C(c2ccccc2)/C1=C/c1ccc2c(c1)OCO2`, the cell viability was 101%.

As for `COc1ccc(-c2coc3cc(OC4OC(COC(C)=O)C(OC(C)=O)C(OC(C)=O)C4OC(C)=O)ccc3c2=O)cc1` (centres undefined), the cell viability turned out to be 74.8%.

As for `COc1ccc(NC(=O)Cc2ccc(OC)c(OC)c2)c(OC)c1`, the cell viability was 95.8%.

Take `COc1cc(C(=O)CCNc2ccc(F)c(Cl)c2)cc(OC)c1OC`: the cell viability amounted to 84.7%.

In the case of `N#CC1=C(N)Oc2c(oc(CO)cc2=O)C1c1ccccc1[N+](=O)[O-]` (centres undefined), the cell viability was 100%.

In the case of `Cc1ccc(NCC(=O)N/N=C\c2c(C)cc(O)cc2O)cc1`, the cell viability was determined as 89.8%.

As for `C=CCNC(=O)C(O)C(O)C(=O)NCC=C` (centres undefined), the cell viability stood at 101%.

Regarding `COc1cc(OC)cc(C(=O)Nc2ccccc2C(=O)Nc2cccc(C)c2C)c1`, the cell viability is 106%.

Turning to `Cc1ccc(-n2c(SCc3cccc(F)c3)nc3c(=O)[nH]cnc32)cc1`, the cell viability is 104%.

`Nc1nc2c(c(=O)[nH]1)NC(NCCc1ccccc1)N2C1OC(CO)C(O)C1O` (centres undefined): the cell viability came out at 97.3%.

In the case of `O=c1oc2cc(O)ccc2c(-c2ccccc2)c1-c1cccc(Cl)c1`, the cell viability came to 97.6%.

For the compound `COc1cc(O)c(C(=O)Cc2ccc(Br)cc2)c(OC)c1`, the cell viability came out at 112%.

Regarding `CC(=O)OC1C(=O)OC2C1OC(n1ccc(=O)[nH]c1=O)C2OC(C)=O` (centres undefined), the cell viability was found to be 88.9%.

Take `O=C(O)/C=C/c1ccc(Cl)c(Cl)c1`: the cell viability was 97.8%.

As for `O=C(O)C(O)C(O)C(O[C@@H]1O[C@H](CO)[C@H](O)[C@H](O)[C@H]1O)C(O)CO` (some centres undefined), the cell viability was found to be 114%.

For the compound `COc1cc(C2=NOC(C(=O)N(C)c3ccccc3)C2)cc(OC)c1OC` (centres undefined), the cell viability was determined as 98.8%.

On to `CCCC(=O)NC1C(=O)N2C(C(=O)O)=C(COC(C)=O)CSC12` (centres undefined), for which the cell viability is 106%.

Take `CC(C)(C)OC(=O)N[C@@H](Cc1ccc(OC(C)(C)C)cc1)C(=O)O`: the cell viability turned out to be 91.3%.

Regarding `COc1cc(C(=O)Oc2c(Br)cc(Br)cc2/C=N\NC(=O)c2ccc(C)nc2)cc(OC)c1OC`, the cell viability is 82.8%.

Consider `CSCCC(NS(=O)(=O)c1ccc(C)cc1)C(=O)O` (centres undefined), for which the cell viability amounted to 102%.

With `COc1cc(OC)cc(C(=O)Nc2cccc(Cl)c2)c1`, the cell viability is 101%.

Consider `Cc1cc2c(C(C)C)c(O)c(O)c(/C=N/NC(N)=S)c2c(O)c1-c1c(O)cc2c(/C=N/NC(N)=S)c(O)c(O)c(C(C)C)c2c1C`, for which the cell viability was 110%.
